Reference: publication PMC11079029, “Intramolecular autoinhibition regulates the selectivity of PRPF40A tandem WW domains for proline-rich motifs” (Nature Communications, 2024)
Results are given in words; binding and its absence hold for the method and conditions named. Binding seen in cells or lysates may run through a third protein. These calls come from enrichment with a bait or labelling near it, and not all partners need be listed.

B1: LARP7, endogenous (protein, UniProt Q4G0J3 1-582)
chain: METESGNQEKVMEEESTEKKKEVEKKKRSRVKQVLADIAKQVDFWFGDANLHKDRFLREQIEKSRDGYVDISLLVSFNKMKKLTTDGKLIARALRSSAVVELDLEGTRIRRKKPLGERPKDEDERTVYVELLPKNVNHSWIERVFGKCGNVVYISIPHYKSTGDPKGFAFVEFETKEQAAKAIEFLNNPPEEAPRKPGIFPKTVKNKPIPALRVVEEKKKKKKKKGRMKKEDNIQAKEENMDTSNTSISKMKRSRPTSEGSDIESTEPQKQCSKKKKKRDRVEASSLPEVRTGKRKRSSSEDAESLAPRSKVKKIIQKDIIKEASEASKENRDIEISTEEEKDTGDLKDSSLLKTKRKHKKKHKERHKMGEEVIPLRVLSKSEWMDLKKEYLALQKASMASLKKTISQIKSESEMETDSGVPQNTGMKNEKTANREECRTQEKVNATGPQFVSGVIVKIISTEPLPGRKQVRDTLAAISEVLYVDLLEGDTECHARFKTPEDAQAVINAYTEINKKHCWKLEILSGDHEQRYWQKILVDRQAKLNQPREKKRGTEKLITKAEKIRLAKTQQASKHIRFSEYD
B2: MEPCE, endogenous (protein, UniProt Q7L2J0 1-689)
chain: MIEMAAEKEPFLVPAPPPPLKDESGGGGGPTVPPHQEAASGELRGGTERGPGRCAPSAGSPAAAVGRESPGAAATSSSGPQAQQHRGGGPQAQSHGEARLSDPPGRAAPPDVGEERRGGGGTELGPPAPPRPRNGYQPHRPPGGGGGKRRNSCNVGGGGGGFKHPAFKRRRRVNSDCDSVLPSNFLLGGNIFDPLNLNSLLDEEVSRTLNAETPKSSPLPAKGRDPVEILIPKDITDPLSLNTCTDEGHVVLASPLKTGRKRHRHRGQHHQQQQAAGGSESHPVPPTAPLTPLLHGEGASQQPRHRGQNRDAPQPYELNTAINCRDEVVSPLPSALQGPSGSLSAPPAASVISAPPSSSSRHRKRRRTSSKSEAGARGGGQGSKEKGRGSWGGRHHHHHPLPAAGFKKQQRKFQYGNYCKYYGYRNPSCEDGRLRVLKPEWFRGRDVLDLGCNVGHLTLSIACKWGPSRMVGLDIDSRLIHSARQNIRHYLSEELRLPPQTLEGDPGAEGEEGTTTVRKRSCFPASLTASRGPIAAPQVPLDGADTSVFPNNVVFVTGNYVLDRDDLVEAQTPEYDVVLCLSLTKWVHLNWGDEGLKRMFRRIYRHLRPGGILVLEPQPWSSYGKRKTLTETIYKNYYRIQLKPEQFSSYLTSPDVGFSSYELVATPHNTSKGFQRPVYLFHKARSPSH

Molecular target: GFP-tagged PRPF40A N-terminal region (PRPF40A-Nter-WT) (human)
Assay: affinity purification with mass spectrometry; SILAC; GFP-tagged constructs expressed in HeLa cells, 2.5 mg lysate in mRIPA buffer on GFP-nanobody agarose beads, 1 h at 4 °C; compared with GFP alone

| Binder | binding |
| --- | --- |
| B1 | binds |
| B2 | binds |
